Assay [1] has as its target tagless human TIM-3 IgV domain (human) (UniProt Q8TDQ0). Briefly: ELISA; antibody blockade: plate-bound tagless hTIM-3 IgV; 4 μM GST-tagged hCEACAM1 IgV with anti-CEACAM1 monoclonal 5F4 (0–1 μM) or mouse IgG1 isotype control; both purified. (In general: An ELISA detects its analyte on a solid surface through an enzyme-linked reagent.)
For assay [2], the target named is tagless human CEACAM1 IgV domain (human) (UniProt P13688). The assay can be described thus: ELISA; peptide blocking: plate-bound tagless hCEACAM1; hTIM-3 Fc fusion protein (4 μM) incubated with 10 μM hTIM-3 C-C′ loop-derived peptide or 10 μM scrambled control peptide; both purified.

The chains behind the UniProt entries cited, without tags or fusion partners. Where a name states a change or a piece, a line headed by the entry shows the natural chain unless it says otherwise. A line that says so, or that is headed by a name, gives the form on record, which may keep a tag or linker.
tagless human TIM-3 IgV domain (Q8TDQ0, form named): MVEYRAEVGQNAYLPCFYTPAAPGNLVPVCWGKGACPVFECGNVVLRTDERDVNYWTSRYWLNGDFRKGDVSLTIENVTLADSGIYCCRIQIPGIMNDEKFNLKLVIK
UniProt P13688: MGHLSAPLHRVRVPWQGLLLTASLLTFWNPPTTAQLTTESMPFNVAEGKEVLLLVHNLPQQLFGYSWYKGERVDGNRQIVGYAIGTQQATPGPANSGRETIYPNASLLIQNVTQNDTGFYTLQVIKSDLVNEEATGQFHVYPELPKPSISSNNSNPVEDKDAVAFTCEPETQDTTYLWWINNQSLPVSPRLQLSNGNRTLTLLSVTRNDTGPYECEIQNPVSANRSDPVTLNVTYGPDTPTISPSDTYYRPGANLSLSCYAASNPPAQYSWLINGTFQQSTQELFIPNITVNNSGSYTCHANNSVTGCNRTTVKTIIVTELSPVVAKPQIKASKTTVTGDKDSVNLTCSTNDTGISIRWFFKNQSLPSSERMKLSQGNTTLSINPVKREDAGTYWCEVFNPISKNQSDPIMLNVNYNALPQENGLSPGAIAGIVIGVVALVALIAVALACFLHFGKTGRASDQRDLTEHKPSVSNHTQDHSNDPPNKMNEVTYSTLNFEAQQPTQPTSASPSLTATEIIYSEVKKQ

These are yes or no findings as the source states them, for the method shown. Binding calls can cover weak binding; strength is not graded here.

For “glutathione-S-transferase (GST) tagged hCEACAM1 IgV-domain protein (from UniProt P13688) (domain or fragment)”, the binding entry in assay [1] is “binds”.

With CPVFECGNVVLRTDERDVNY [hTIM-3 C-C′ loop-derived peptide (amino acids 58–77)], the binding result in assay [2] is given as “binds”.

(Values after paper PMC6269442, “High resolution X-ray and NMR structural study of human T-cell immunoglobulin and mucin domain containing protein-3” (Scientific Reports, 2018).)
